PubChem BioAssay AID1159584 | Peter MacCallum Cancer Centre, 2016

Assay: 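Genes whose loss is lethal only together with E-cadherin loss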 (primary screen)
System: human MCF10A breast epithelial cells, parental and CDH1-null
Reagents: siRNA against human genes
Detection: 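Cell viability by CellTiter-Glo ATP luminescence, each line scaled to the mean of mock wells across plates, then CDH1-null over parental ratio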
Direction: CDH1-null / parental viability ratio: higher = CDH1-null cells survive relatively better than parental; CDH1-null viability vs mock: higher = more viable CDH1-null cells
Units: CDH1-null viability vs mock in fraction of mock
This is an unselected part of about 18,000 reagents. Further read-outs or replicates are left out here. Not given: the amount of reagent, the time to read-out.

CLECL1 (GeneID 160365)
- CDH1-null / parental viability ratio: 1.37
- CDH1-null viability vs mock: 0.93

ZFAND2A (GeneID 90637)
- CDH1-null / parental viability ratio: 0.94
- CDH1-null viability vs mock: 0.84

TMEM132B (GeneID 114795)
- CDH1-null / parental viability ratio: 0.85
- CDH1-null viability vs mock: 0.73

TVP23B (GeneID 51030)
- CDH1-null / parental viability ratio: 0.87
- CDH1-null viability vs mock: 0.81

LEPROTL1 (GeneID 23484)
- CDH1-null / parental viability ratio: 1.02
- CDH1-null viability vs mock: 0.58

PPP1R16A (GeneID 84988)
- CDH1-null / parental viability ratio: 1.2
- CDH1-null viability vs mock: 1.12

HP1BP3 (GeneID 50809)
- CDH1-null / parental viability ratio: 0.95
- CDH1-null viability vs mock: 0.92

BATF (GeneID 10538)
- CDH1-null / parental viability ratio: 1.24
- CDH1-null viability vs mock: 0.72

ERV3-1 (GeneID 2086)
- CDH1-null / parental viability ratio: 1.4
- CDH1-null viability vs mock: 0.67

HMGCR (GeneID 3156)
- CDH1-null / parental viability ratio: 0.87
- CDH1-null viability vs mock: 0.76

NONO (GeneID 4841)
- CDH1-null / parental viability ratio: 1.21
- CDH1-null viability vs mock: 0.68

SFTPC (GeneID 6440)
- CDH1-null / parental viability ratio: 1.07
- CDH1-null viability vs mock: 0.95

CDO1 (GeneID 1036)
- CDH1-null / parental viability ratio: 0.86
- CDH1-null viability vs mock: 0.77

AKIP1 (GeneID 56672)
- CDH1-null / parental viability ratio: 1.04
- CDH1-null viability vs mock: 0.5

SEC16A (GeneID 9919)
- CDH1-null / parental viability ratio: 1.21
- CDH1-null viability vs mock: 0.8

CAPNS2 (GeneID 84290)
- CDH1-null / parental viability ratio: 1.1
- CDH1-null viability vs mock: 1.06

TXNDC5 (GeneID 81567)
- CDH1-null / parental viability ratio: 0.79
- CDH1-null viability vs mock: 0.74

PUS3 (GeneID 83480)
- CDH1-null / parental viability ratio: 0.99
- CDH1-null viability vs mock: 0.7

KLRB1 (GeneID 3820)
- CDH1-null / parental viability ratio: 1.12
- CDH1-null viability vs mock: 0.94

GREM2 (GeneID 64388)
- CDH1-null / parental viability ratio: 0.97
- CDH1-null viability vs mock: 0.73

EGFLAM (GeneID 133584)
- CDH1-null / parental viability ratio: 1.07
- CDH1-null viability vs mock: 0.88

TIPRL (GeneID 261726)
- CDH1-null / parental viability ratio: 1.01
- CDH1-null viability vs mock: 0.85

SLC5A10 (GeneID 125206)
- CDH1-null / parental viability ratio: 1.1
- CDH1-null viability vs mock: 1.19

CDC50B (GeneID 161291)
- CDH1-null / parental viability ratio: 1.02
- CDH1-null viability vs mock: 0.88

KCTD13 (GeneID 253980)
- CDH1-null / parental viability ratio: 1.22
- CDH1-null viability vs mock: 0.83

UBAP2L (GeneID 9898)
- CDH1-null / parental viability ratio: 1.23
- CDH1-null viability vs mock: 0.64

KRT73 (GeneID 319101)
- CDH1-null / parental viability ratio: 0.99
- CDH1-null viability vs mock: 0.84

CHRNA2 (GeneID 1135)
- CDH1-null / parental viability ratio: 1.3
- CDH1-null viability vs mock: 0.96

GLG1 (GeneID 2734)
- CDH1-null / parental viability ratio: 0.97
- CDH1-null viability vs mock: 0.85

DLX3 (GeneID 1747)
- CDH1-null / parental viability ratio: 1.05
- CDH1-null viability vs mock: 0.99

TDRD1 (GeneID 56165)
- CDH1-null / parental viability ratio: 1.31
- CDH1-null viability vs mock: 0.63

CFAP210 (GeneID 129881)
- CDH1-null / parental viability ratio: 1.07
- CDH1-null viability vs mock: 0.88

C11orf16 (GeneID 56673)
- CDH1-null / parental viability ratio: 1.84
- CDH1-null viability vs mock: 0.7

ZNF474 (GeneID 133923)
- CDH1-null / parental viability ratio: 0.93
- CDH1-null viability vs mock: 0.84

USP25 (GeneID 29761)
- CDH1-null / parental viability ratio: 1.22
- CDH1-null viability vs mock: 0.78

Only “CDH1-null viability vs mock” (3 entries from above):
CDO1 (GeneID 1036)	0.77
AKIP1 (GeneID 56672)	0.5
SEC16A (GeneID 9919)	0.8
